# Laboratory results from article PMC12256856.
# Results are given in words; binding and its absence hold for the method and conditions named. In cells and extracts the contact can be indirect. Some binding calls cover weakened binding; strength is not graded here. Tags and fused reporters may be left off the sequences shown.
# T1: GST-Rim1^1-200 fusion protein (Rab3 interaction domain of Rab3 interacting molecule 1) (UniProt Q9JIR4)
# T1 sequence: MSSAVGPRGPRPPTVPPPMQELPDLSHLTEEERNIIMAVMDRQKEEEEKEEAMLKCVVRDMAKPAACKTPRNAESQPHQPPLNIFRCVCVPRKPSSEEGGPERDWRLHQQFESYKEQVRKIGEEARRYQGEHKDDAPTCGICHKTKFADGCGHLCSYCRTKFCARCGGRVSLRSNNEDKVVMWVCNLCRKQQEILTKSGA
# Biological target: T1, GST-Rim1^1-200 fusion protein (Rab3 interaction domain of Rab3 interacting molecule 1)
# Assay: pull-down; GST-Rim1 1-200 as bait; lysates of NRCMs expressing GFP-Rab3a in magnesium lysis buffer (25 mM HEPES pH 7.5, 150 mM NaCl, 1% Igepal CA630, 10 mM MgCl2, 1 mM EDTA, 2% glycerol); anti-GFP immunoblot; cells treated with PBS or phenylephrine (10 uM) for 3 or 24 h with or without FR900359 (1 uM); only the target purified
row,binding,Binder
1,binds,"GFP-tagged wild-type Rab3a (protein, UniProt P20336 1-220) MASATDSRYGQKESSDQNFDYMFKILIIGNSSVGKTSFLFRYADDSFTPAFVSTVGIDFKVKTIYRNDKRIKLQIWDTAGQERYRTITTAYYRGAMGFILMYDITNEESFNAVQDWSTQIKTYSWDNAQVLLVGNKCDMEDERVVSSERGRQLADHLGFEFFEASAKDNINVKQTFERLVDVICEKMSESLDTADPAVTGAKQGPQLSDQQVPPHQDCAC"
2,binds,"GFP-tagged constitutively active GTP-bound Rab3a (Rab3a^Q81L) (protein, UniProt P20336 1-220) MASATDSRYGQKESSDQNFDYMFKILIIGNSSVGKTSFLFRYADDSFTPAFVSTVGIDFKVKTIYRNDKRIKLQIWDTAGLERYRTITTAYYRGAMGFILMYDITNEESFNAVQDWSTQIKTYSWDNAQVLLVGNKCDMEDERVVSSERGRQLADHLGFEFFEASAKDNINVKQTFERLVDVICEKMSESLDTADPAVTGAKQGPQLSDQQVPPHQDCAC"
